Reference: article PMC10511046

By UniProt entry, the sequences of proteins in these tests, tags left out.
UniProt P11798: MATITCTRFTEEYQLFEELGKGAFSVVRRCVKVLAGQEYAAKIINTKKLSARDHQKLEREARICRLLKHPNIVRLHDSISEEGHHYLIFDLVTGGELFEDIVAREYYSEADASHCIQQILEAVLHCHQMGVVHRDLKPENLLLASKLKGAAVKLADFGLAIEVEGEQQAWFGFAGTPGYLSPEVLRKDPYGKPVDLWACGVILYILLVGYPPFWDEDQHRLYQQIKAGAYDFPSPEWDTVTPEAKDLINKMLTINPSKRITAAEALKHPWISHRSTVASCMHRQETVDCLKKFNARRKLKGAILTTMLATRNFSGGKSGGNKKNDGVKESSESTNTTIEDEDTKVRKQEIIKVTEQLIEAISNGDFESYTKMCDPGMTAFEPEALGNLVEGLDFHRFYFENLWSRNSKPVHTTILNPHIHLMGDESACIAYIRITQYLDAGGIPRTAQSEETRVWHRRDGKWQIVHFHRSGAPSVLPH
UniProt Q6PHZ2: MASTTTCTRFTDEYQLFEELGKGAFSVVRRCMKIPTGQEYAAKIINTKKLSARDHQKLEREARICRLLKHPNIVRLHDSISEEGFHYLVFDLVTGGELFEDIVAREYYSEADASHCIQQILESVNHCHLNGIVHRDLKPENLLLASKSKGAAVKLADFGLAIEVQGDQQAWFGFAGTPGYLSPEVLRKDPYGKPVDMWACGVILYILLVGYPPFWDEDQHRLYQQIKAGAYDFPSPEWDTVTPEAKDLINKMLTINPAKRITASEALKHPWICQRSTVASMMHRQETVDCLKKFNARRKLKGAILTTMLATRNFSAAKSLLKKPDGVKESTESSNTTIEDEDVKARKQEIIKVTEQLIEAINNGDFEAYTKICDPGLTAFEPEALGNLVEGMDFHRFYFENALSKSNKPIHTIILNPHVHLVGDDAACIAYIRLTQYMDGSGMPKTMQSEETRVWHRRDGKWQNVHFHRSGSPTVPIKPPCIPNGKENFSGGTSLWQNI
UniProt P68368: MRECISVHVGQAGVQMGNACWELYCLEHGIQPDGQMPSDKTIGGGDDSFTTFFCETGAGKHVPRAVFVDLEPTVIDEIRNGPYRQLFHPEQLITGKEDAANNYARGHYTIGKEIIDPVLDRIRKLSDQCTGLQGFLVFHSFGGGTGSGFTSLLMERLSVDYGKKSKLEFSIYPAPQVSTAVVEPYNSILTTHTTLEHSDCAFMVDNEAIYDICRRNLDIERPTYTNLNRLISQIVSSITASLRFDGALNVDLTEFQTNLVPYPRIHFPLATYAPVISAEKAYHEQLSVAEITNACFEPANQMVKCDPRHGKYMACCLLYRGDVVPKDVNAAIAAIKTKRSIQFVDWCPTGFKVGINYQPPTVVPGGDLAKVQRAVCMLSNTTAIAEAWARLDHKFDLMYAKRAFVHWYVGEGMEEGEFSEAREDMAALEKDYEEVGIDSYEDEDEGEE
UniProt Q9QYR6: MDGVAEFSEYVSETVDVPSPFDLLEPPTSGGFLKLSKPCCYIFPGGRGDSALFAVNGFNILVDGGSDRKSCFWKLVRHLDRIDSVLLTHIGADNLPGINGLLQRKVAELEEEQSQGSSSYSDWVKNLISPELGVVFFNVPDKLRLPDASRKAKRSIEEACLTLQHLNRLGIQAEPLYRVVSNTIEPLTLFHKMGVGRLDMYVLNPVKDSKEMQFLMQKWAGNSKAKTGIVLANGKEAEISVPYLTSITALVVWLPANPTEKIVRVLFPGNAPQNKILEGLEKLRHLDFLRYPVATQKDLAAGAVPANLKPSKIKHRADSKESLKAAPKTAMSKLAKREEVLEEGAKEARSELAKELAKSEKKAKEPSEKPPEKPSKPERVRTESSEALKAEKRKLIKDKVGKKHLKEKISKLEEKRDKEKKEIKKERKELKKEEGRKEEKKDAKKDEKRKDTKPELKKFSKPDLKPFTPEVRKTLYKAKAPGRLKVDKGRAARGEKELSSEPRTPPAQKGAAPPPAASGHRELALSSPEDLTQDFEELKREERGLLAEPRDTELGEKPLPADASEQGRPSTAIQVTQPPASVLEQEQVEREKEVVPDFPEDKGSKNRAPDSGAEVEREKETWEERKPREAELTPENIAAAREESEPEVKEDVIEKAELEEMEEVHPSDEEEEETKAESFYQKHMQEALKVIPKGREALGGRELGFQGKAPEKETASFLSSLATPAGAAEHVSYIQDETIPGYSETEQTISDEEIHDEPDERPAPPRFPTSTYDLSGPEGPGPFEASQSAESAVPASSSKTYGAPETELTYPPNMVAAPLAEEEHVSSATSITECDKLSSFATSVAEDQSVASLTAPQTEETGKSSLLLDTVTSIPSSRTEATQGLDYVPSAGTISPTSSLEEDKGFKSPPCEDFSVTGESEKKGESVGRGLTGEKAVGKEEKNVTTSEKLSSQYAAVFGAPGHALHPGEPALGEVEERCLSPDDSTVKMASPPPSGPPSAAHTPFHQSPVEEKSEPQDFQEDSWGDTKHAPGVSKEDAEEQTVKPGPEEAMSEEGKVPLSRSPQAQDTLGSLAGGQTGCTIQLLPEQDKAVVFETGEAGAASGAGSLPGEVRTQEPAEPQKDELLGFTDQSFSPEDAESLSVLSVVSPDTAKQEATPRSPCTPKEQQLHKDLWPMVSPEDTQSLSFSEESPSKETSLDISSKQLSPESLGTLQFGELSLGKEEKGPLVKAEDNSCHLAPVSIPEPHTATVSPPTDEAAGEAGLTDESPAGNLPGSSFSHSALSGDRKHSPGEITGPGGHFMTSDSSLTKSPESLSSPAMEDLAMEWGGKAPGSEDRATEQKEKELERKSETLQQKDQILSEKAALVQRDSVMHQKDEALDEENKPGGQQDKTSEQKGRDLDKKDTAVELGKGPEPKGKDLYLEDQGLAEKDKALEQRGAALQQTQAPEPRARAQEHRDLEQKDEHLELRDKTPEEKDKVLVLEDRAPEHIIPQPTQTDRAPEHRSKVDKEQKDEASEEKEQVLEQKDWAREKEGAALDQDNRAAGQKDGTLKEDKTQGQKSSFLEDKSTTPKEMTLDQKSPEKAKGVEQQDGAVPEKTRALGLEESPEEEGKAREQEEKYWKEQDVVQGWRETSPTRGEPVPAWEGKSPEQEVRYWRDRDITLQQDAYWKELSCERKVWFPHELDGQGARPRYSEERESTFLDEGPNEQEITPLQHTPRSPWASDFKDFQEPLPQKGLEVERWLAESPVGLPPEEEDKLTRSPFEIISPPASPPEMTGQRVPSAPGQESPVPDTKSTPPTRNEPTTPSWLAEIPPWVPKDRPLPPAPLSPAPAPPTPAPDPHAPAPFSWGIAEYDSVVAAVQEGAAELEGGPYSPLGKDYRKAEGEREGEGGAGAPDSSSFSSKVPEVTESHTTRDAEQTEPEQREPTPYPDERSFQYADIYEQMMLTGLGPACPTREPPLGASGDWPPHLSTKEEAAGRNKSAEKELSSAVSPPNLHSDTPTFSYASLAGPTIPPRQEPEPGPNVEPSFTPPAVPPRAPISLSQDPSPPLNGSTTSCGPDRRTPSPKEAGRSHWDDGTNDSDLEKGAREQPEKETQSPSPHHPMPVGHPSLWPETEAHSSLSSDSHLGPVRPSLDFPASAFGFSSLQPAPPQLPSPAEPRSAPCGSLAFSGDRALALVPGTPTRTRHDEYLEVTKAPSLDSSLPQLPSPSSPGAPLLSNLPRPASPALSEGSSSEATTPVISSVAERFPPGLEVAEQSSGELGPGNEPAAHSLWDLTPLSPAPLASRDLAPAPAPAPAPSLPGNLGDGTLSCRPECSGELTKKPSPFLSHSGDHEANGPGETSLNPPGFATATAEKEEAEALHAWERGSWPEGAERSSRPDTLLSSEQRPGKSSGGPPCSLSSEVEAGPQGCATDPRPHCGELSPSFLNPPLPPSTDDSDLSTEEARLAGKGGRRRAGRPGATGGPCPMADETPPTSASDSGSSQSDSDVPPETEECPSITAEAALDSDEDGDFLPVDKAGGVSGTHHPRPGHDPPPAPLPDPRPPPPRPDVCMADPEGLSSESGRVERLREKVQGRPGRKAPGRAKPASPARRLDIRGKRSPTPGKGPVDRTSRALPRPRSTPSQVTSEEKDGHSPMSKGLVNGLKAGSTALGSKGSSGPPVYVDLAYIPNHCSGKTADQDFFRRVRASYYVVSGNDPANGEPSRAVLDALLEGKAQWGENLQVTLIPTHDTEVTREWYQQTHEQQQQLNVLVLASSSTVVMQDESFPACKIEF
UniProt P68373: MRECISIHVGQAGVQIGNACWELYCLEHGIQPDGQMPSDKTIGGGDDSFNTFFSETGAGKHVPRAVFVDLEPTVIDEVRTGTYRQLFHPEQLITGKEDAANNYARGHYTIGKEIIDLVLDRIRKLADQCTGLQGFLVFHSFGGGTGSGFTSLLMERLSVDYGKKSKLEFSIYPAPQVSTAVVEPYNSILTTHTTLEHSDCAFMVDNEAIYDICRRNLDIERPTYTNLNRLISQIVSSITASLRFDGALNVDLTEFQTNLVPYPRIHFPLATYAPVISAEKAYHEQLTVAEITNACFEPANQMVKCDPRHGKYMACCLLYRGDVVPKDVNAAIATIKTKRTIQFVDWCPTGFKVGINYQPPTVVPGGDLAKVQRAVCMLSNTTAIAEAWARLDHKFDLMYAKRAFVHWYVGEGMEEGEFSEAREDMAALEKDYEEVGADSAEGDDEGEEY
UniProt P28652: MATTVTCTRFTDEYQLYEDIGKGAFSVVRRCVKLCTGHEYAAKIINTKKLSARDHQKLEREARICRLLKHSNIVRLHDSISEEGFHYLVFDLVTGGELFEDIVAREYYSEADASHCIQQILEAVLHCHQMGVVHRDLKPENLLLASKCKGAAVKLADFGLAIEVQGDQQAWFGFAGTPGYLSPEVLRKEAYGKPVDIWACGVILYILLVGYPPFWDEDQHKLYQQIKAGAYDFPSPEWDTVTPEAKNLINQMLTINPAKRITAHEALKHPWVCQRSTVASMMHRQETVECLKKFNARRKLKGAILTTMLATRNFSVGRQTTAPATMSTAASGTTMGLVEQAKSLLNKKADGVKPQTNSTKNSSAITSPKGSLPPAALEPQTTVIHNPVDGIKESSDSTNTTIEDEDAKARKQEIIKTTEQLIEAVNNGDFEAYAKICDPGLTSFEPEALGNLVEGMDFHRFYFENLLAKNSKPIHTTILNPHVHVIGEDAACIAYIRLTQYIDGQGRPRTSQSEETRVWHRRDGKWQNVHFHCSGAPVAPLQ

T1: Prickle2 (mouse (endogenous in mouse brain)) (UniProt Q80Y24)
T1 sequence: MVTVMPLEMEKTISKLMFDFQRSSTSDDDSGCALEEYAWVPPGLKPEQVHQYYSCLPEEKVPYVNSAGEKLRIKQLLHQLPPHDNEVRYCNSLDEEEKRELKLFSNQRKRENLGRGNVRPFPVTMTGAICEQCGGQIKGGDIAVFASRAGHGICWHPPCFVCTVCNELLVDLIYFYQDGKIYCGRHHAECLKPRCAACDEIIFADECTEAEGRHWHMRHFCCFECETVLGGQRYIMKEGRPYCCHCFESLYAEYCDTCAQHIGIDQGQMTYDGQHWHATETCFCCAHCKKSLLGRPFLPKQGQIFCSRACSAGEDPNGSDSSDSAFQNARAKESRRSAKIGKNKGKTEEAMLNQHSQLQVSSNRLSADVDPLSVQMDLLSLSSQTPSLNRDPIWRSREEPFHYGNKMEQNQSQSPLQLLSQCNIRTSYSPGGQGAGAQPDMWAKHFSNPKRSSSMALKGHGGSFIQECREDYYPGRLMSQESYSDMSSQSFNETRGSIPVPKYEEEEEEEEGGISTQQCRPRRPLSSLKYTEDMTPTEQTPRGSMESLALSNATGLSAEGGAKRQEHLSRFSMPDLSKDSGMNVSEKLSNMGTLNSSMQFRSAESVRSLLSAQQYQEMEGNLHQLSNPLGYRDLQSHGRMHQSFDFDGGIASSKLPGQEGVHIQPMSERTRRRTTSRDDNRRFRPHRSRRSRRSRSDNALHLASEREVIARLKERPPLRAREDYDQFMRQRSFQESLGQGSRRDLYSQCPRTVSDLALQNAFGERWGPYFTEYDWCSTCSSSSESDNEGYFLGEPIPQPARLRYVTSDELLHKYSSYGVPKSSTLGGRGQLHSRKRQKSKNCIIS

B1: Immunoglobulin superfamily member 9b (protein, UniProt E9PZ19 18-1328)
chain: LVAQGAHGLREEPEFVTARAGEGVVLRCDVIHPVTGQPPPYVVEWFKFGVPIPIFIKFGYYPPHVDPEYAGRASLHDKASLRLEQVRSEDQGWYECKVLMLDQQYDTFHNGSWVHLTINAPPTFTETPPQYIEAKEGGSITMTCTAFGNPKPIVTWLKEGTLLGASAKYQVSDGSLTVTSVSREDRGAYTCRAYSIQGEAVHTTHLLVQGPPFIVSPPENITVNISQDALLTCRAEAYPGNLTYTWYWQDENVYFQNDLKLRVRILIDGTLIIFRVKPEDAGKYTCVPSNSLGRSPSASAYLTVQYPARVLNMPPVIYVPVGIHGYIRCPVDAEPPATVVKWNKDGRPLQVEKNLGWTLMEDGSIRIEEATEEALGTYTCVPYNTLGTMGQSAPARLVLKDPPYFTVLPGWEYRQEAGRELLIPCAAAGDPFPVITWRKVGKPSRSKHNALPSGSLQFRALSKEDHGEWECVATNVVTSITASTHLTVIGTSPHAPGSVRVHVSMTTANVSWEPGYDGGYEQTFSVWMKRAQFGPHDWLSLSVPPGPSWLLVDSLEPETAYQFSVLAQNRLGTSAFSEVVTVNTLAFPVTTPEPLVLVTPPRCLTANRTQQGVLLSWLPPANHSFPIDRYIMEFRVGERWEMLDDAIPGTDGDFFAKDLSQDTWYEFRVLAVMQDLISEPSNIAGVSSTDIFPQPDLTDDGLARPVLAGIVATICFLAAAILFSTLAACFVNKQRKRKLKRKKDPPLSITHCRKSLESPLSSGKVSPESIRTLRAPSESSDDQGQPAAKRMLSPTREKELSLYKKTKRAISSRKYSVAKAEAEAEATTPIELISRGPDGRFVMGPSEMEPSVKGRRIEGFPFAEETDMYPEFRQSDEENEDPLVPTSVAALKPQLTPMSSSQDSYLPPPAYSPRFQPRGLEGPSGLGGRLQATGQARPPAPRPFQHGQYYGYLSSSSPGEVEPPPFYMPEVGSPLSSVMSSPPLHTEGPFGHPTIPEENGENASNSTLPLTQTPTGGRSPEPWGRPEFPFGGLETPAMMFPHQLHPCDVAESLQPKACLPRGLPPAPLQVPAAYPGMLSLEAPKGWVGKSPGRGPIPAPPATKWQERPMQPLVSQGQLRHTSQGMGIPVLPYPEPAEPGGHGGPSTFGLDTRWYEPQPRPRPSPRQARRAEPSLHQVVLQPSRLSPLTQSPLSSRTGSPELAARARPRPGLLQQAEMSEITLQPPAAVSFSRKSTPSSTGSPSQSSRSGSPSYRPTMGFTTLATGYPSPPPGPAPPAPGDTLDVFGQTPSPRRMGEEPLRPEPPTTLPTSG

target: T1, Prickle2 (mouse (endogenous in mouse brain)); assay: affinity purification with mass spectrometry; endogenous Prickle2 immunoprecipitated with anti-Prickle2 antibody from whole mouse brain lysate (PD9 and adult) in RIPA buffer; coprecipitated proteins identified by LC-MS/MS; hits had more than 3-fold more peptides than controls

binding, binds:
Calcium-calmodulin dependent kinase CamK2alpha (from UniProt P11798 1-478)
Calcium-calmodulin dependent kinase CamK2delta (from UniProt Q6PHZ2 1-499)
Tuba4a (from UniProt P68368 1-448)
Tuba4b (mouse (endogenous in mouse brain))
Microtubule associated protein 1a (from UniProt Q9QYR6 1-2776)
Tuba1c (from UniProt P68373 1-449)
Microtubule crosslinking factor 1 (from UniProt Q3UHU5 1-1945)
Calcium-calmodulin dependent kinase CamK2beta (from UniProt P28652 1-542)
B1

Results are given in words; binding and its absence hold for the method and conditions named. Binding seen in cells or lysates may run through a third protein. These calls come from enrichment with a bait or labelling near it, and not all partners need be listed.
